The text below walks through data of PMC3641332.

Amino acid sequences for entries named in this document (tags omitted). A change or cut given only in a name is not applied to a line headed by its entry.
UniProt Q09472: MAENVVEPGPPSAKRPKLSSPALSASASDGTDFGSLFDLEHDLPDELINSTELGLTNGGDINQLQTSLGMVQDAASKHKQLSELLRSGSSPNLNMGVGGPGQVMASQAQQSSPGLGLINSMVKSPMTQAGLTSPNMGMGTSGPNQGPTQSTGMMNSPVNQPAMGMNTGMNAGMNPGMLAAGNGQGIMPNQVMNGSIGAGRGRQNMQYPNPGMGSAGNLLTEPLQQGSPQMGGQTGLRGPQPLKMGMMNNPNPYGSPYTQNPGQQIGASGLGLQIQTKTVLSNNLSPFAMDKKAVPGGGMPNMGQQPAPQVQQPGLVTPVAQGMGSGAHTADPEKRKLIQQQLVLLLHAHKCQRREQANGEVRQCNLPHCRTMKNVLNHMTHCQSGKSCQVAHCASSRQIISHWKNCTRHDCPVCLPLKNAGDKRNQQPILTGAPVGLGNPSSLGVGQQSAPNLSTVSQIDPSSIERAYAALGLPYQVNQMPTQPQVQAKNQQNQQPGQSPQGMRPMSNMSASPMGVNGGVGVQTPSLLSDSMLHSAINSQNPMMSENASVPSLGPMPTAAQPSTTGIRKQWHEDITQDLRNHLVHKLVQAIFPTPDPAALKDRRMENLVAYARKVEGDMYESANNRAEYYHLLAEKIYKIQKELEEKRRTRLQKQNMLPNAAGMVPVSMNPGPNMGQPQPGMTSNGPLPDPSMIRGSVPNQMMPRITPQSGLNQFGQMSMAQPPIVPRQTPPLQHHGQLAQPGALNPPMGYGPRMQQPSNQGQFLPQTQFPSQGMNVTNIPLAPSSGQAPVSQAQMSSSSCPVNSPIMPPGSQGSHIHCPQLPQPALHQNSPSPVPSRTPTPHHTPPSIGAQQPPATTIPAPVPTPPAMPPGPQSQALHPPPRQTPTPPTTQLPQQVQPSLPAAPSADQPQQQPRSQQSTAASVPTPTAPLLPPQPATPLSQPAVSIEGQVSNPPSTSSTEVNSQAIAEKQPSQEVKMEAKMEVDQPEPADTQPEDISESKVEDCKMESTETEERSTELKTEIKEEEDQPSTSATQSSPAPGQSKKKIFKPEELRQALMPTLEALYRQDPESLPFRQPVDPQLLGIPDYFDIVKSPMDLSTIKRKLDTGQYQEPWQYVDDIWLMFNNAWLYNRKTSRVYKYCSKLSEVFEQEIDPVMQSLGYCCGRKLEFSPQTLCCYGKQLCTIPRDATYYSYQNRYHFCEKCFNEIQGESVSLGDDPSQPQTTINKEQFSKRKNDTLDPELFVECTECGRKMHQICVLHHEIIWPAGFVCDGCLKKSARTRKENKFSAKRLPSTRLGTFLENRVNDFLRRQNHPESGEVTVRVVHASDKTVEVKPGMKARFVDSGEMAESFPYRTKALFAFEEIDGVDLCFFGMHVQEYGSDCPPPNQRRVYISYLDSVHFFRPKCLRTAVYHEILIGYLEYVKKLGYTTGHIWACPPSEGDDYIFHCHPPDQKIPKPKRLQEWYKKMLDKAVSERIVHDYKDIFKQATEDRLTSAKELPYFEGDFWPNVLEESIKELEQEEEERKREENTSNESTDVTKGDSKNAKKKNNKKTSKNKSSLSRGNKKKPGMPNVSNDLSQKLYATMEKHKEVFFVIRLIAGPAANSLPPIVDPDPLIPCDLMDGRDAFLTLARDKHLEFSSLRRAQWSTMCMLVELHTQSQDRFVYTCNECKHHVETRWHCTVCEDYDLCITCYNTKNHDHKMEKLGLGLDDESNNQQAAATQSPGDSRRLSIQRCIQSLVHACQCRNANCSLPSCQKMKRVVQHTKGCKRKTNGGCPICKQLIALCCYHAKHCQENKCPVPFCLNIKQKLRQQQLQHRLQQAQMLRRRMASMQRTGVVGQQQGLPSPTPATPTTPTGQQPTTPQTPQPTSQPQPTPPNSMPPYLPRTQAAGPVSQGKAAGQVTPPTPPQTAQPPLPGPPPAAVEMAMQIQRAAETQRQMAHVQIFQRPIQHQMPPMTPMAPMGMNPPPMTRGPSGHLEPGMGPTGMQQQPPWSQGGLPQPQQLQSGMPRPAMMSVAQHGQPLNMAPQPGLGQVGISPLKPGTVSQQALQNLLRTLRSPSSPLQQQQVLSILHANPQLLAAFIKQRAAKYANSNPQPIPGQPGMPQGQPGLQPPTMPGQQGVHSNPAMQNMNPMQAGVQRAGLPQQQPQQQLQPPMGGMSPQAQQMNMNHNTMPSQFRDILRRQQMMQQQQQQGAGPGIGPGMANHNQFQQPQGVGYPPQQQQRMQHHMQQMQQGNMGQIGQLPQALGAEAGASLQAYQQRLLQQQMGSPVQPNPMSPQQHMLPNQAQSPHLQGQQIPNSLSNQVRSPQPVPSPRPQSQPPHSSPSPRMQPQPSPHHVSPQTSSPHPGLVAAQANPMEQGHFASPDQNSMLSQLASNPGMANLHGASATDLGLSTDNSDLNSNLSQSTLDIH

Experiment [1] has as its target T1, FK506 binding protein 51 (FKBP51), Flag-tagged (UniProt Q13451).
T1 sequence: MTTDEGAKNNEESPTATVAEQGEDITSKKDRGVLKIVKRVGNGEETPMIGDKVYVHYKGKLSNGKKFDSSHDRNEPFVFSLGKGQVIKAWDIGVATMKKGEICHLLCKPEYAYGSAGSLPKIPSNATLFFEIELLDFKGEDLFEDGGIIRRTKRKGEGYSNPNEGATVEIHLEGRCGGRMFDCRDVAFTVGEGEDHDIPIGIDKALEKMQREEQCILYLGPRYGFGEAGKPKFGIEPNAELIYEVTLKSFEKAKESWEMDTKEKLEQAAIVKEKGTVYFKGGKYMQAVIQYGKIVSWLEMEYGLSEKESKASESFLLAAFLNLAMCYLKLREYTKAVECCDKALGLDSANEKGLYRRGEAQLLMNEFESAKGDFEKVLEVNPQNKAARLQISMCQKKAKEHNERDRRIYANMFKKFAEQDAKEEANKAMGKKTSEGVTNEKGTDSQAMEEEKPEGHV
As to the kind of experiment: co-IP; 500 ug total lysate (modified RIPA) of SAN melanoma cells transfected with FKBP51/Flag; precipitated with 3 ug anti-Flag (M2) overnight at 4°C, protein A/G plus-agarose, washed in RIPA; western blot with anti-p300. (In general: Immunoblotting shows a protein as a band on a membrane.)

The target in experiment [2] is E1A binding protein 300 (p300) (human (endogenous in SAN melanoma cells)) (UniProt Q09472). The experiment can be described thus: co-IP; 500 ug total lysate (modified RIPA) of SAN melanoma cells transfected with FKBP51/Flag; precipitated with 3 ug anti-KAT3B/p300 overnight at 4°C, protein A/G plus-agarose, washed in RIPA; western blot with anti-FKBP51.

These are yes or no findings as the source states them, for the method shown. Binding seen in cells or lysates may run through a third protein. Some binding calls cover weakened binding; strength is not graded here. Tags and fused reporters may be left off the sequences shown.

Regarding “E1A binding protein 300 (p300) (from UniProt Q09472 1-2414)”, the binding entry in experiment [1] is reported as “binds”.

B1: FK506 binding protein 51 (FKBP51), Flag-tagged (protein, UniProt Q13451 1-457)
chain: T1 sequence
Consider B1, for which the binding entry in experiment [2] was “binds”.
